Assay results from PMC3948737.
Results are given in words; binding and its absence hold for the method and conditions named. In cells and extracts the contact can be indirect. Some binding calls cover weakened binding; strength is not graded here. For some assays here: Sequences can lack the tags named with a protein.

Chains of the proteins cited; added tags and fusions are not shown.
UniProt Q9UBN7: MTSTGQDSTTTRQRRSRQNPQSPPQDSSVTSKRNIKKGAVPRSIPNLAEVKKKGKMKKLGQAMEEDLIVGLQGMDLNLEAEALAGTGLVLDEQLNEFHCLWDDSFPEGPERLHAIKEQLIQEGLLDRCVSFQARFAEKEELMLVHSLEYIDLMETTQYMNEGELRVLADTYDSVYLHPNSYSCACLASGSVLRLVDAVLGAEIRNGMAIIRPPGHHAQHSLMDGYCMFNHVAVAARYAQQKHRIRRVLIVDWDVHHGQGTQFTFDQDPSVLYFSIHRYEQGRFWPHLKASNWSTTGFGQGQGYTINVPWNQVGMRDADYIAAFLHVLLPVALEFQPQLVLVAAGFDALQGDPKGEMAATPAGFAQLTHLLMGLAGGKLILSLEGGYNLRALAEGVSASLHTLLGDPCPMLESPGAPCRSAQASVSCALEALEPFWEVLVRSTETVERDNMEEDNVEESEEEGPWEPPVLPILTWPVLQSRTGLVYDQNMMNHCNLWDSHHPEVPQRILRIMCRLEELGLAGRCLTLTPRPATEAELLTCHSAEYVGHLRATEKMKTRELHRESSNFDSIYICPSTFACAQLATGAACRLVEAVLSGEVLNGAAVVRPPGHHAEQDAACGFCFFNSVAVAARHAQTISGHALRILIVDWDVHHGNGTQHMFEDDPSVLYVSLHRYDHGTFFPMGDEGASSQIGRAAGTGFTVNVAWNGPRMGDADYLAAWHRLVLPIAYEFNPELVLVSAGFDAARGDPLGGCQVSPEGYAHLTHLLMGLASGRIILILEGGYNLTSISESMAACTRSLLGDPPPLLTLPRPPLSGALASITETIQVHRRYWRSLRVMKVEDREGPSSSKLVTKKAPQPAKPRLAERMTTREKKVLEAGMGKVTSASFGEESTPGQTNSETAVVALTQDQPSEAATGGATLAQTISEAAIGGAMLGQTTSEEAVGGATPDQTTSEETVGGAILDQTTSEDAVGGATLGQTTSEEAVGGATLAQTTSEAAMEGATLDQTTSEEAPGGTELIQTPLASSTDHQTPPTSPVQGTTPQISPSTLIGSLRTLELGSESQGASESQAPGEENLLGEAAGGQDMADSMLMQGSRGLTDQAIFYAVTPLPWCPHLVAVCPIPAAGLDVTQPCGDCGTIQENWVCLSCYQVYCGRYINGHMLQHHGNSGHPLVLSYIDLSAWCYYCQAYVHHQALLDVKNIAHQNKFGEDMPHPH

B1: Mdp3 (MAP7 domain-containing protein 3), endogenous (protein, UniProt Q8IWC1 1-876)
chain: MMADGAAAGAGGSPSLRELRARMVAAANEIAKERRKQDVVNRVATHSSNIRSTFKPVIDGSMLKNDIKQRLARERREEKRRQQDANKETQLLEKERKTKLQYEKQMEERQRKLKERKEKEEQRRIAAEEKRHQKDEAQKEKFTAILYRTLERRRLADDYQQKRWSWGGSAMANSESKTANKRSASTEKLEQGTSALIRQMPLSSAGLQNSVAKRKTDKERSSSLNRRDSNLHSSTDKEQAERKPRVTGVTNYVMQYVTVPLRKCTSDELRAVMFPMSTMKIPPQTKVEESPLEKVETPPKASVDAPPQVNVEVFCNTSMEASPKAGVGMAPEVSTDSFPVVSVDVSPVVSTYDSEMSMDASPELSIEALPKVDLETVPKVSIVASPEASLEAPPEVSLEALPEVSVEAAPEGSLEAPPKGSAEVAPKESVKGSPKESMEASPEAMVKASPKTSLEASMEASPKAKARDAPKKSEMDKQALIPIAKKRLSSYTECYKWSSSPENACGLPSPISTNRQIQKNCPPSPLPLISKQSPQTSFPYKIMPIQHTLSVQSASSTVKKKKETVSKTTNRCEALSQRHMIYEESGNKSTAGIMNAEAATKILTELRRLAREQREKEEEERQREEMQQRVIKKSKDMAKEAVGGQAEDHLKLKDGQQQNETKKKKGWLDQEDQEAPLQKGDAKIKAQEEADKRKKEHERIMLQNLQERLERKKRIEEIMKRTRKTDVNASKVTETSSHDIYEEAEADNEESDKDSLNEMFPSAILNGTGSPTKFKMPFNNAKKMTHKLVFLEDGTSQVRKEPKTYFNGDLKNFRQKSMKDTSIQEVVSRPSSKRMTSHTTKTRKADETNTTSRSSAQTKSEGFHDILPKSSDTFRQ

Experiments:
[1] = molecular target: T1, GST-tagged Mdp3 full-length (UniProt Q8IWC1); assay: pull-down; HeLa cells transfected with GST or GST-Mdp3 fusion proteins; GST-pulldown from cell lysates on glutathione beads; immunoblot with anti-HDAC6
T1 sequence: B1 chain

[2] = molecular target: GFP-HDAC6 (histone deacetylase 6) (UniProt Q9UBN7); assay: co-IP; HeLa cells transfected with GFP or GFP-HDAC6; anti-GFP immunoprecipitation; immunoblot with anti-Mdp3

| Molecule | binding [1] | binding [2] |
| --- | --- | --- |
| HDAC6 (histone deacetylase 6), endogenous (from UniProt Q9UBN7 1-1215) (enzyme) | binds |  |
| B1 |  | binds |
